Data taken from PubChem BioAssay AID1159506, deposited by NCATS (2015).

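Genome-wide siRNA knockdown in TC32 Ewing sarcoma cells, comparing luciferase light from an NR0B1-promoter reporter with a CMV-promoter reporter 48 hours after transfection. Each siRNA was applied at 20 nM. A z-score of the log NR0B1-over-CMV signal, less the median of siRNAs with the same seed; more negative means a stronger specific loss of the NR0B1 reporter.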

The strongest results of the screen are mostly left out here. Sequences are the guide (antisense) strand, without overhang.

Sequence	target gene	seed-corrected z-score
UCUGUUAACUUUUUCCUCA	C8orf59	0.5698
UCACCUCGCACAUGAAACC	NKPD1	0.8847
UUGCGUAACUUCUGUAUGC	TBC1D2B	0.6818
AACUUGACUGAUUCUACCC	ZNF614	-0.2699
UUUUUCUUACCUAGGACUG	LINC00574	-1.555
UUGUUCUCCACGACGCAGG	FGFR3	-0.9768
UUUCGACUUAGGAAGUUUC	FAM57A	1.331
AAACGUAUCACAAUCUUGC	ZNF615	-0.002742
AAAACUUCUCUAGCAAGCC	METAP1	-0.9894
UCCUCUGACAGUUUCGCUU	RAX	0.09709
UUUCAUAUGACUUGGUUUC	CRTAP	0.0983
UCUGAUUGAAGGAUGAAAC	TM4SF19	-0.01736
UCCAGUACCGUCUUGCCUC	PRMT6	0.3375
UGAUUUGUUAGAUUCAAGG	FAM180A	0.2836
AAUAGGGUAGGUGGAAUCC	STT3A	0.6721
AUAUGAACUAGAAUUGAAG	ZNF720P1	-0.8711
UUUAGGUACUGUGGUGUCC	IL22RA1	0.03998
UUUGGUGUCGGUUGCUCCG	GOLGA6L7P	0.0495
UUAGCUAAUAGGGACUGCC	CGREF1	0.4374
UUCUGAUAACUUGACCUCC	SDR42E1	-0.09221
ACAGUGCUGACUCCUUUGG	PLXNA1	-0.2834
UAGGUUUGAAAACUGUACC	MRPS10	-0.8544
UGCUGUCCGAGAUGUGUCC	KLK9	-1.257
UGAAGGCACCUCGUGAUCC	FAAP20	0.01885
UCUCGAAAUCAUAAAGUGC	SH3RF3	0.7635
UGAUAUCAUAUGCAGAUUC	CFAP69	0.1294
AUCAUGGAUAUUUCACUGC	BRD8	-0.1667
AUUAGGUUCACCAAUCUGU	CA13	0.4879
UUUGGAUCCACCUGGAUAG	CDC27P6	0.5426
AAAGUUGUACUUGCUGAGG	SBNO2	-0.2292
UUGGAUGGACGAACGAUCU	GDF10	0.9816
UGUACAUCAAGUGUAAGAG	ZBTB2	0.4984
UUCUUUAACUCCUCUACCC	ZC3H10	-0.9066
UACUGGUAUAGGACUGUAG	EXOC6B	-0.7876
AUUUGCCUAAGUAAAAGGG	GEN1	-0.9759
AGAAUUUGAAGAGCGUGCG	ADRA2A	1.239
UUCUUGACCACGUCUUGUC	BCL2L13	-0.7287
UAGCGUGUCCAGCAGAUUC	PIDD1	1.007
GAAGUAGCGGUGGAAGAGG	TREX2	-0.1627
UUGCGUUCCUCAGUACUGG	MED12	1.142

For reference, 5 entries once more:

{"sequence": "UGAUAUCAUAUGCAGAUUC", "target gene": "CFAP69", "seed-corrected z-score": "0.1294"}
{"sequence": "UUGCGUUCCUCAGUACUGG", "target gene": "MED12", "seed-corrected z-score": "1.142"}
{"sequence": "AAAACUUCUCUAGCAAGCC", "target gene": "METAP1", "seed-corrected z-score": "-0.9894"}
{"sequence": "AAACGUAUCACAAUCUUGC", "target gene": "ZNF615", "seed-corrected z-score": "-0.002742"}
{"sequence": "UCUGAUUGAAGGAUGAAAC", "target gene": "TM4SF19", "seed-corrected z-score": "-0.01736"}